This is an account of results in publication PMC8570464.

Sequences of proteins named here, by UniProt entry; tags and fusion partners are left off.
UniProt Q8N122: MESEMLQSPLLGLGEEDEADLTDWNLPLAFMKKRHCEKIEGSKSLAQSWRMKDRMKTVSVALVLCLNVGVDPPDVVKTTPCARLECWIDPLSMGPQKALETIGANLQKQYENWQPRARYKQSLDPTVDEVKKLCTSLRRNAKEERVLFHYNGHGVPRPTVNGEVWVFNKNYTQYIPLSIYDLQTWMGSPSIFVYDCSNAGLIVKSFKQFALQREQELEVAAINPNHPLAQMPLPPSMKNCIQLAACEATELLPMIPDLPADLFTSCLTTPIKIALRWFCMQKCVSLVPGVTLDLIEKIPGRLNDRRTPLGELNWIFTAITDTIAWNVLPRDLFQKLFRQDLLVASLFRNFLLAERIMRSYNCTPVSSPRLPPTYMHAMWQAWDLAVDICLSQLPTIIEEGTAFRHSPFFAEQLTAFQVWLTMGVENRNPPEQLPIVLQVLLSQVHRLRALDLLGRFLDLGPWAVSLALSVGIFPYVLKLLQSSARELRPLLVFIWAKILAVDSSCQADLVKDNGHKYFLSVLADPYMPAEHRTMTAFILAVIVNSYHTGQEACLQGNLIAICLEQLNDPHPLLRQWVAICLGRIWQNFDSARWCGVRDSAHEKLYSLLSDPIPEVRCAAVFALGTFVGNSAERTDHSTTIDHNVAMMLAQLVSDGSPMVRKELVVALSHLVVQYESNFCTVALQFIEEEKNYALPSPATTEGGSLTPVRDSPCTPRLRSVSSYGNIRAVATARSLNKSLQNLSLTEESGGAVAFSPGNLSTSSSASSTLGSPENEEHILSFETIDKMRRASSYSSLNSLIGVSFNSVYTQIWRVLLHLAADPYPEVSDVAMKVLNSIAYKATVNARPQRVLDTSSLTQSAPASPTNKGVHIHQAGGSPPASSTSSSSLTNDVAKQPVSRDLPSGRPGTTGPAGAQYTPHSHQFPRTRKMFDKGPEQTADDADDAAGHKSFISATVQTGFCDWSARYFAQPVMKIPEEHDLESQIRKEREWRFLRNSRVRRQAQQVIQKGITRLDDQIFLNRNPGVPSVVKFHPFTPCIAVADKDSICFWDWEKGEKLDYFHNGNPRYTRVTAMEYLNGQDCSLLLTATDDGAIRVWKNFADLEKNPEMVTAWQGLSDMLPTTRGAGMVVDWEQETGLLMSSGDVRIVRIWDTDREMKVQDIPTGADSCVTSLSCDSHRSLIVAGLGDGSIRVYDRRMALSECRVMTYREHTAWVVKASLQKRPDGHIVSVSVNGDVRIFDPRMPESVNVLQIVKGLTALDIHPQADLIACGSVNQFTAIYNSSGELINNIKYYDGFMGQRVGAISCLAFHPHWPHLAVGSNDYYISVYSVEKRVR
UniProt P13861: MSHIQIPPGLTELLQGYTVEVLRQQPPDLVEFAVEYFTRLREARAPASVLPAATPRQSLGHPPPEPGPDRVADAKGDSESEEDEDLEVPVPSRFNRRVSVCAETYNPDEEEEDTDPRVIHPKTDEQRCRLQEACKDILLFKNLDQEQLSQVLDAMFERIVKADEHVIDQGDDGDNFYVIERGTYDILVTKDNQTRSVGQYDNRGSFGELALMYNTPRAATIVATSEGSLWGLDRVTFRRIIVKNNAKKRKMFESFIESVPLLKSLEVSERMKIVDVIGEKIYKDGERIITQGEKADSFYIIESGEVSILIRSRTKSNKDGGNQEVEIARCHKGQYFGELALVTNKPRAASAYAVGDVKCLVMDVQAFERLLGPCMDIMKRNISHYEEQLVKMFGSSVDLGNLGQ
UniProt P10644: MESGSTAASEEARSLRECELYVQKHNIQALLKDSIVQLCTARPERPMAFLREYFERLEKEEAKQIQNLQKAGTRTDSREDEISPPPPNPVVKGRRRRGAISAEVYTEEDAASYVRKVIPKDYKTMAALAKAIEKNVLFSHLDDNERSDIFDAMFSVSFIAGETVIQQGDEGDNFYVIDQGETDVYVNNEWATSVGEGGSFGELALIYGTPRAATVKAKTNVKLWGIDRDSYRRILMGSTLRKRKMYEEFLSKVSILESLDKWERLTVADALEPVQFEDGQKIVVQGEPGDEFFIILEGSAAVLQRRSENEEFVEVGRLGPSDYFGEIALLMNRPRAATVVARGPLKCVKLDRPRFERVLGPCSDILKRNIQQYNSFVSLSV

These are yes or no findings as the source states them, for the method shown. In cells and extracts the contact can be indirect. Some entries that bind do so weakly or less than the wild type. For some assays here: Sequences can lack the tags named with a protein.

One experiment concerns the target HA-tagged Raptor (UniProt Q8N122). In words: co-IP; HA-tagged Raptor co-expressed with Flag-tagged AKAP13 full-length or truncations for 24 hours; HA IP; immunoblot. Background: A western blot detects proteins with antibodies after separation by electrophoresis.
The target of experiment [1] is Flag-tagged AKAP13 full-length (amino acids 1–2817) (human) (UniProt Q12802). In words: co-IP; Flag-tagged AKAP13 co-expressed with HA-tagged Raptor in HEK293A cells for 24 hours; 0.3% CHAPS lysis; anti-Flag beads; immunoblot.

Turning to “Flag-tagged AKAP13 full-length (amino acids 1–2817) (from UniProt Q12802-2 1-2817)”, in the experiment with HA-tagged Raptor, the binding entry is recorded as “binds”. “HA-tagged Raptor (from UniProt Q8N122 1-1335)”: the binding entry in experiment [1] is listed as “binds”. On to “PKA regulatory subunit IIα (from UniProt P13861 1-404)”, for which, in the experiment with HA-tagged Raptor, the binding result is listed as “binds”. As for “PKA regulatory subunit Iα (from UniProt P10644 1-381)”, the binding result in experiment [1] is on record as “no binding”.

B1: Flag-tagged AKAP13 1388–2190 (domain or fragment, UniProt Q12802-2 1388-2190)
chain: INRENWCTIEPCPDAASLLASKQSPECENFLDVGLGRECTSKQGVLKRESGSDSDLFHSPSDDMDSIIFPKPEEEHLACDITGSSSSTDDTASLDRHSSHGSDVSLSQILKPNRSRDRQSLDGFYSHGMGAEGRESESEPADPGDVEEEEMDSITEVPANCSVLRSSMRSLSPFRRHSWGPGKNAASDAEMNHRSMSWCPSGVQYSAGLSADFNYRSFSLEGLTGGAGVGNKPSSSLEVSSANAEELRHPFSGEERVDSLVSLSEEDLESDQREHRMFDQQICHRSKQQGFNYCTSAISSPLTKSISLMTISHPGLDNSRPFHSTFHNTSANLTESITEENYNFLPHSPSKKDSEWKSGTKVSRTFSYIKNKMSSSKKSKEKEKEKDKIKEKEKDSKDKEKDKKTVNGHTFSSIPVVGPISCSQCMKPFTNKDAYTCANCSAFVHKGCRESLASCAKVKMKQPKGSLQAHDTSSLPTVIMRNKPSQPKERPRSAVLLVDETATTPIFANRRSQQSVSLSKSVSIQNITGVGNDENMSNTWKFLSHSTDSLNKISKVNESTESLTDEGVGTDMNEGQLLGDFEIESKQLEAESWSRIIDSKFLKQQKKDVVKRQEVIYELMQTEFHHVRTLKIMSGVYSQGMMADLLFEQQMVEKLFPCLDELISIHSQFFQRILERKKESLVDKSEKNFLIKRIGDVLVNQFSGENAERLKKTYGKFCGQHNQSVNYFKDLYAKDKRFQAFVKKKMSSSVVRRLGIPECILLVTQRITKYPVLFQRILQCTKDNEVEQEDLAQSLSLVKDVIG
Turning to B1, the binding entry with HA-tagged Raptor was “binds”.
